The source of these data is PubChem BioAssay AID270 (DTP/NCI, 2004).

The test system of this experiment is BDF1 mice, s.c. Lewis lung carcinoma, T/C %. As to the kind of experiment: NCI In Vivo Anticancer Drug Screen. Data for tumor model Lewis Lung Carcinoma (subcutaneous) in B6D2F1 (BDF1) mice. A digest of the protocol:
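Transplanted tumors grown in mice; compound vs vehicle dosing; endpoint survival or tumor size; ratio T/C.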

[1] abbreviates: T/C endpoint: median survival time, dose: 25.0 mg/kg/injection, schedule: Q01DX009 (ip), vehicle: Klucel (hydroxypropylcellulose) (HPC), higher T/C = longer survival.
Where [2] appears, read: T/C endpoint: median survival time, dose: 50.0 mg/kg/injection, schedule: Q01DX009 (ip), vehicle: Klucel (hydroxypropylcellulose) (HPC), higher T/C = longer survival.
Where [3] appears, read: T/C endpoint: median survival time, dose: 9.4 mg/kg/injection, schedule: Q01DX009 (ip), vehicle: saline with Tween-80, higher T/C = longer survival.

The list does not hold the whole screen: it gathers tests that were run many times, whatever their T/C, doses with no T/C, and many T/C values between a quarter and a half above the control. Further doses and runs are listed elsewhere. T/C is the treated group as % of the vehicle group. Schedule codes are those of the source, taken here to give the interval after Q, in days (D) or hours (H), and the number of doses after X. Some doses have a count of surviving animals in place of a T/C: the source holds a T/C of zero for them, seemingly a mark for toxic or unscored doses. Some doses without a T/C left all or most animals alive at the check, yet need not have been tolerated: survival well below the control is almost never listed, so the zero probably covers shortened survival too. Survivors were counted at the toxicity check, usually on the fifth day, unless a day is given; later deaths do not show. Some molecules as drawn cover several salts, stereoisomers or complexes of the source; a dose is that of the sample tested. Some entries hold several experiments; the results are listed from low to high. Where survival is the endpoint, this PubChem deposit counts one and a half times the control or more as active, and values a quarter to a half above the control carry no call in these data; other NCI protocols may use other cut-offs. Some T/C values carry the count of animals alive at the toxicity check (mostly the fifth day); where none is given, no animal had died by that day.

For `COc1cc(NS(C)(=O)=O)ccc1Nc1c2ccc(Cl)cc2nc2c(OC)cccc12`, the T/C is 134 % of control (T/C endpoint: median survival time, dose: 1.2 mg/kg/injection, schedule: Q01DX009 (ip), vehicle: other, higher T/C = longer survival) and 145 % of control (T/C endpoint: median survival time, dose: 4.5 mg/kg/injection, schedule: Q01DX009 (ip), vehicle: other, higher T/C = longer survival). Moreover, the survivor count is, setting by setting: (T/C endpoint: median survival time, dose: 9.0 mg/kg/injection, schedule: Q01DX009 (ip), vehicle: other, higher T/C = longer survival) 10 of 10; (T/C endpoint: median survival time, dose: 18.0 mg/kg/injection, schedule: Q01DX009 (ip), vehicle: other, higher T/C = longer survival) 10 of 10; (T/C endpoint: median survival time, dose: 36.0 mg/kg/injection, schedule: Q01DX009 (ip), vehicle: other, higher T/C = longer survival) 10 of 10.
For `CCN(CC)Cc1cc(Nc2c3ccccc3nc3cc(Cl)ccc23)ccc1O`, the T/C was 127 % of control (T/C endpoint: mean tumor weight, dose: 5.0 mg/kg/injection, schedule: Q01DX011 (ip), vehicle: other, evaluated on day 12, higher T/C = larger tumour); 138 % of control (T/C endpoint: mean tumor weight, dose: 10.0 mg/kg/injection, schedule: Q01DX011 (ip), vehicle: other, evaluated on day 12, higher T/C = larger tumour); 138 % of control (T/C endpoint: mean tumor weight, dose: 20.0 mg/kg/injection, schedule: Q01DX011 (ip), vehicle: other, evaluated on day 12, higher T/C = larger tumour).
On to `C[C@]12CC[C@H]3[C@@H](CC[C@]4(O)C[C@@H](O)CC[C@]34C=O)[C@@]1(O)CC[C@@H]2C1=CC(=O)OC1`, for which the T/C (T/C endpoint: median survival time, dose: 6.25 mg/kg/injection, schedule: Q01DX009 (ip), vehicle: Klucel (hydroxypropylcellulose) (HPC), higher T/C = longer survival) is 126 % of control.
For `COc1c(Cl)cc2c(c1OC)N(C)C1N3C(=O)C4(C)SSC3(C(=O)N4C)C(O)C21O` (stereo not drawn), the survivor count (T/C endpoint: median survival time, dose: 1.0 mg/kg/injection, schedule: Q01DX009 (ip), vehicle: Klucel (hydroxypropylcellulose) (HPC), higher T/C = longer survival) is 8 of 10.
Turning to `c1ccc2cc3c(cc2c1)Cn1c-3nc2ccccc21`, the survivor count (T/C endpoint: mean tumor weight, dose: 80.0 mg/kg/injection, schedule: Q01DX011 (ip), vehicle: carboxymethylcellulose (CMC), higher T/C = larger tumour) is listed as 2 of 6; the survivor count (T/C endpoint: mean tumor weight, dose: 120.0 mg/kg/injection, schedule: Q01DX011 (ip), vehicle: carboxymethylcellulose (CMC), higher T/C = larger tumour) was 1 of 6; the survivor count (T/C endpoint: mean tumor weight, dose: 180.0 mg/kg/injection, schedule: Q01DX011 (ip), vehicle: carboxymethylcellulose (CMC), higher T/C = larger tumour) was 1 of 6 and 3 of 6; the survivor count (T/C endpoint: mean tumor weight, dose: 265.0 mg/kg/injection, schedule: Q01DX011 (ip), vehicle: carboxymethylcellulose (CMC), higher T/C = larger tumour) is given as 3 of 7; the survivor count (T/C endpoint: mean tumor weight, dose: 400.0 mg/kg/injection, schedule: Q01DX011 (ip), vehicle: carboxymethylcellulose (CMC), higher T/C = larger tumour) is reported as 1 of 7; the survivor count (T/C endpoint: mean tumor weight, dose: 600.0 mg/kg/injection, schedule: Q01DX011 (ip), vehicle: carboxymethylcellulose (CMC), higher T/C = larger tumour) is on record as 0 of 7.
Consider `COc1cc(NS(C)(=O)=O)ccc1Nc1c2ccccc2nc2ccccc12`, for which the T/C is, setting by setting: (T/C endpoint: median survival time, dose: 0.25 mg/kg/injection, schedule: Q01DX009 (ip), vehicle: other, higher T/C = longer survival) 149 % of control; (T/C endpoint: median survival time, dose: 1.0 mg/kg/injection, schedule: Q01DX009 (ip), vehicle: other, higher T/C = longer survival) 139 % of control; (T/C endpoint: median survival time, dose: 2.0 mg/kg/injection, schedule: Q01DX009 (ip), vehicle: other, higher T/C = longer survival) 127 % of control. For the same molecule, the survivor count is 10 of 10 (T/C endpoint: median survival time, dose: 4.0 mg/kg/injection, schedule: Q01DX009 (ip), vehicle: other, higher T/C = longer survival); 10 of 10 (T/C endpoint: median survival time, dose: 5.0 mg/kg/injection, schedule: Q01DX011 (ip), vehicle: Klucel (hydroxypropylcellulose) (HPC), higher T/C = longer survival); 10 of 10 (T/C endpoint: median survival time, dose: 6.25 mg/kg/injection, schedule: Q01DX009 (ip), vehicle: saline, higher T/C = longer survival); 10 of 10 (T/C endpoint: median survival time, dose: 10.0 mg/kg/injection, schedule: Q01DX011 (ip), vehicle: Klucel (hydroxypropylcellulose) (HPC), higher T/C = longer survival); 10 of 10 (T/C endpoint: median survival time, dose: 12.5 mg/kg/injection, schedule: Q01DX009 (ip), vehicle: saline, higher T/C = longer survival); 10 of 10 (T/C endpoint: median survival time, dose: 12.5 mg/kg/injection, schedule: Q01DX011 (ip), vehicle: Klucel (hydroxypropylcellulose) (HPC), higher T/C = longer survival). In addition, the survivor count by setting is: under setting [1], 9 of 10; (T/C endpoint: median survival time, dose: 25.0 mg/kg/injection, schedule: Q01DX009 (ip), vehicle: saline, higher T/C = longer survival) 10 of 10; (T/C endpoint: median survival time, dose: 25.0 mg/kg/injection, schedule: Q01DX011 (ip), vehicle: Klucel (hydroxypropylcellulose) (HPC), higher T/C = longer survival) 10 of 10; under setting [2], 9 of 10; (T/C endpoint: median survival time, dose: 50.0 mg/kg/injection, schedule: Q01DX009 (ip), vehicle: saline, higher T/C = longer survival) 7 of 10; (T/C endpoint: median survival time, dose: 50.0 mg/kg/injection, schedule: Q01DX011 (ip), vehicle: Klucel (hydroxypropylcellulose) (HPC), higher T/C = longer survival) 8 of 10. Besides, the survivor count (T/C endpoint: median survival time, dose: 100.0 mg/kg/injection, schedule: Q01DX011 (ip), vehicle: Klucel (hydroxypropylcellulose) (HPC), higher T/C = longer survival) is reported as 1 of 10.
For the molecule `O=[N+]([O-])O.[Ga]`, the T/C (T/C endpoint: median survival time, dose: 4.0 mg/kg/injection, schedule: Q01DX009 (ip), vehicle: saline, higher T/C = longer survival) was 127 % of control. Also, under “T/C endpoint: median survival time, dose: 64.0 mg/kg/injection, schedule: Q01DX009 (ip), vehicle: saline, higher T/C = longer survival”, the survivor count is on record as 10 of 10.
On to `ClCCn1cnc2c(SCc3ccccc3)ncnc21`, for which the survivor count (T/C endpoint: mean tumor weight, dose: 480.0 mg/kg/injection, schedule: Q01DX011 (ip), vehicle: other, higher T/C = larger tumour) was 2 of 6.
Take `COc1ccc(-c2c(CC(=O)O)c3cc(OC)ccc3n2Cc2ccc(Cl)cc2)cc1`: the T/C runs as follows: (T/C endpoint: mean tumor weight, dose: 150.0 mg/kg/injection, schedule: Q01DX011 (ip), vehicle: other, evaluated on day 12, higher T/C = larger tumour) 130 % of control; (T/C endpoint: mean tumor weight, dose: 500.0 mg/kg/injection, schedule: Q01DX011 (ip), vehicle: other, evaluated on day 12, higher T/C = larger tumour) 140 % of control.
`C1#CCCCCCC#CCCCC1`: the survivor count under setting [1] is listed as 10 of 10; the survivor count under setting [2] is 10 of 10; the survivor count (T/C endpoint: median survival time, dose: 100.0 mg/kg/injection, schedule: Q01DX009 (ip), vehicle: Klucel (hydroxypropylcellulose) (HPC), higher T/C = longer survival) is reported as 10 of 10; the survivor count (T/C endpoint: median survival time, dose: 200.0 mg/kg/injection, schedule: Q01DX009 (ip), vehicle: Klucel (hydroxypropylcellulose) (HPC), higher T/C = longer survival) was 10 of 10.
In the case of `CC(C)c1ccc(O)c(=O)cc1`, for the setting “T/C endpoint: mean tumor weight, dose: 150.0 mg/kg/injection, schedule: Q01DX011 (ip), vehicle: carboxymethylcellulose (CMC), higher T/C = larger tumour”, the survivor count is on record as 3 of 6.
Regarding `O=NN(CCCl)C(=O)NC1CCC(C(=O)O)CC1` (stereo not drawn), the survivor count (T/C endpoint: median survival time, dose: 5.0 mg/kg/injection, schedule: Q01DX001 (ip), vehicle: saline with Tween-80, higher T/C = longer survival) is 10 of 10. The T/C reads like this: (T/C endpoint: median survival time, dose: 18.0 mg/kg/injection, schedule: Q01DX001 (ip), vehicle: saline with Tween-80, higher T/C = longer survival) 137 % of control; (T/C endpoint: median survival time, dose: 20.0 mg/kg/injection, schedule: Q01DX001 (ip), vehicle: saline with Tween-80, higher T/C = longer survival) 125 % of control [9 of 10 alive on day 11]; (T/C endpoint: median survival time, dose: 30.0 mg/kg/injection, schedule: Q01DX001 (ip), vehicle: saline with Tween-80, higher T/C = longer survival) 129 and 133 % of control; (T/C endpoint: median survival time, dose: 45.0 mg/kg/injection, schedule: Q01DX001 (ip), vehicle: saline with Tween-80, higher T/C = longer survival) 131 % of control.
Turning to `NC(=S)N/N=C/c1ccc(O)cn1`, the T/C by setting is: under setting [3], 131 % of control; (T/C endpoint: median survival time, dose: 18.8 mg/kg/injection, schedule: Q01DX009 (ip), vehicle: saline with Tween-80, higher T/C = longer survival) 129 % of control; (T/C endpoint: median survival time, dose: 75.0 mg/kg/injection, schedule: Q01DX009 (ip), vehicle: saline with Tween-80, higher T/C = longer survival) 139 % of control. The survivor count is on record as 10 of 10 under setting [3] and 10 of 10 (T/C endpoint: median survival time, dose: 150.0 mg/kg/injection, schedule: Q01DX009 (ip), vehicle: saline with Tween-80, higher T/C = longer survival).
`CC1(C)C(CC(=O)O)CC1C(=O)O` (stereo not drawn): the T/C (T/C endpoint: mean tumor weight, dose: 111.0 mg/kg/injection, schedule: Q01DX011 (ip), vehicle: other, evaluated on day 12, higher T/C = larger tumour) was 126 % of control. The survivor count runs as follows: (T/C endpoint: mean tumor weight, dose: 250.0 mg/kg/injection, schedule: Q01DX011 (ip), vehicle: other, higher T/C = larger tumour) 1 of 6; (T/C endpoint: mean tumor weight, dose: 375.0 mg/kg/injection, schedule: Q01DX011 (ip), vehicle: other, higher T/C = larger tumour) 0 of 6.
Regarding `O=CNCCNC=O`, under “T/C endpoint: mean tumor weight, dose: 222.0 mg/kg/injection, schedule: Q01DX011 (ip), vehicle: saline, evaluated on day 12, higher T/C = larger tumour”, the T/C was 140 % of control.
Take `O=NN(CCCl)C(=O)NC1CCC(CC2CCC(NC(=O)N(CCCl)N=O)CC2)CC1` (stereo not drawn): for the setting “T/C endpoint: median tumor weight (est.), dose: 23.0 mg/kg/injection, schedule: Q01DX001 (ip), vehicle: gum acacia, evaluated on day 20, higher T/C = larger tumour”, the T/C is 126 % of control.
For `CCCCCCCCCCCCCS`, the T/C (T/C endpoint: mean tumor weight, dose: 44.0 mg/kg/injection, schedule: Q01DX011 (ip), vehicle: saline, evaluated on day 12, higher T/C = larger tumour) was 127 % of control.
